Measured values published in PubChem BioAssay AID2685 (National Center for Advancing Translational Sciences (NCATS), 2010).
The other results are listed elsewhere or left out. Further columns of the screen follow, without active or inactive calls. The list favours compounds with an active or inconclusive main result. Potencies come from curve fits of mixed quality, noted in brackets.

Assay: qHTS Assay for Lipid Storage Modulators in Drosophila S3 Cells;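 on cell number change: cells counted by Cell Tracker Red CMTPX staining in the red channel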
Details: BODIPY lipid droplet fluorescence, 18-24 h; for cell number change: measured here: cell count max response, cells fed with added oleic acid
Method in brief: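 Drosophila S3 cells loaded with oleic acid (400 uM, as added) and compounds at several concentrations; lipid droplets imaged by 488-nm laser-scanning cytometry, 500–530 nm intensity and object ratio to cell channel. Percent activity normalized to 20 uM Triacsin C.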

[1] = measured here: lipid fluorescence (Fed channel) AC50, cells fed with added oleic acid
[2] = measured here: cell number channel AC50, cells fed with added oleic acid

| SMILES | cell number change [%] | AC50 [1] | AC50 [2] |
| --- | --- | --- | --- |
| CCCOc1ccc2ccccc2c1/C=N/n1c(C)nnc1-n1nc(C)cc1C | 13.8 | – | – |
| COc1cc2[nH]c(C(=O)Nc3ccc4c(c3)OCCO4)cc2c(OC)c1OC | 19.5 | – | – |
| CCOC(=O)c1sc(S(C)(=O)=O)c2c1CCc1conc1-2 | -39.6 | 18.4 µM [falling, single point] | – |
| CCOc1cccc2sc(NC(=O)CC)nc12 | – | 0.291 µM [falling, partial curve, poor fit] | – |
| CC[n+]1ccc2cc(OC)c(OC)cc2c1Cc1ccc(OC)c(OC)c1 | – | 0.92 µM [falling, single point] | 0.58 µM [rising, single point] |
| CCCCN(C(=O)c1cc(Cl)nc2ccccc12)c1c(N)n(Cc2ccccc2)c(=O)[nH]c1=O | -15.2 | – | – |
| O=C(/C=C/c1ccc2c(c1)OCO2)c1ccccn1 | -20.5 | 29.1 µM [falling, single point] | – |
| Cc1ccc(Cl)cc1N1CCN(S(=O)(=O)c2cc3c(cc2C)NC(=O)CO3)CC1 | 18.4 | – | – |
| CN(CC(=O)N1CCN(Cc2ccccc2)CC1)C(=O)Cc1cccc2ccccc12 | 2.68 | 2.31 µM [falling, partial curve] | – |
| COc1ccc(Cl)cc1NC(=O)NCCN1CCCCC1 | -35.4 | 29.1 µM [falling, single point] | 0.92 µM [falling, full curve, poor fit] |
| CC(NS(=O)(=O)c1ccc(OCC(=O)NCc2cccnc2)cc1)c1ccccc1 (centres undefined) | – | 1.84 µM [falling, full curve] | – |
| Cc1cccc(C)c1NC(=O)N1CCC(n2cnc3ccccc32)CC1 | -81.4 | – | 3.66 µM [falling, full curve] |
| CC(C)(C)SCCNC(=O)c1ccc(Cl)c([N+](=O)[O-])c1 | 66.7 | – | 18.4 µM [rising, partial curve] |
| CCOCCCNC(=O)C(NC(=O)c1ccc(=O)[nH]c1)c1ccccc1 (centres undefined) | 18.8 | 3.26 µM [rising, full curve, poor fit] | – |
| CC(C)NC(=O)CSCc1cccc(Br)c1 | -11.4 | 3.26 µM [falling, single point] | 0.731 µM [falling, full curve, poor fit] |
| Cn1c(=O)c(C(=O)NCCO)c(O)c2ccccc21 | – | 16.4 µM [rising, partial curve] | – |
| Cn1cccc1Cc1nnc(SCC(=O)N2CCc3ccccc32)n1-c1ccc(F)cc1 | -16.2 | 0.116 µM [falling, full curve, poor fit] | – |
| O=C(CCN1C(=O)/C(=C/c2cccs2)SC1=S)Nc1ccc(C(=O)O)cc1 | 24.4 | – | – |
| CC1(c2cc(F)ccc2F)NC(=O)N(CC(=O)Nc2cccc(S(=O)(=O)N3CCCC3)c2)C1=O (centres undefined) | -40.3 | 4.61 µM [falling, partial curve, poor fit] | 0.0517 µM [falling, full curve, poor fit] |
| CN(CC(=O)Nc1cccc(F)c1)C(=O)CNS(=O)(=O)c1ccc(N(C)C)c([N+](=O)[O-])c1 | -11.4 | – | 0.82 µM [falling, full curve, poor fit] |

| SMILES | cell number change [%] | AC50 [1] | AC50 [2] |
| --- | --- | --- | --- |
| Cc1cc(C(=O)COc2ccccc2C(N)=O)c(C)n1C1CC1 | – | 5.8 µM [rising, single point] | – |
| COc1ccc(CCNC(=O)c2cc(-c3ccc(Cl)c(Cl)c3)oc2C)cc1 | -28.6 | – | – |
| O=C(O)CC(=O)Nc1cc(Cl)ccc1O | -70.9 | – | 4.61 µM [falling, full curve] |
| COc1ccc(OC)c(N(CC(=O)Nc2cccc(C(F)(F)F)c2)S(C)(=O)=O)c1 | – | 23.1 µM [rising, single point] | – |
| Cc1ccc(C)c(S(=O)(=O)N2CCCC2CNC(=O)C(=O)NCCc2ccco2)c1 (centres undefined) | 17.2 | 29.1 µM [rising, single point] | – |
| Cc1cccc(C(=O)NNC(=O)CCC(=O)Nc2cccc(Cl)c2C)c1 | 11.8 | 0.651 µM [rising, single point] | – |
| O=C(CCN1C(=O)C2CC=CCC2C1=O)Nc1nccs1 (centres undefined) | -10.5 | 29.1 µM [rising, single point] | – |
| COc1ccc(C(=O)OCc2nnc(-c3ccccc3)o2)cc1S(=O)(=O)N1CCOCC1 | -51.8 | – | 16.4 µM [falling, single point] |
| COc1cc(C(=O)OCCCN2CCOCC2)ccc1O | 10.5 | – | – |
| Cc1ccc(C)c(-n2nnnc2SCC(=O)c2c(N)n(C)c(=O)n(C)c2=O)c1 | -95.8 | 20.6 µM [falling, single point] | 20.6 µM [falling, single point] |
| O=C(CSc1nnc(Nc2ccccc2F)s1)NC(=O)CN1CCCC1=O | -51.4 | 0.0116 µM [falling, full curve] | 0.0058 µM [falling, full curve] |
| CCSc1nnc(NC(=O)NC(C)(C(F)(F)F)C(F)(F)F)s1 | -47.2 | 25.9 µM [falling, partial curve, poor fit] | 32.6 µM [falling, partial curve] |
| O=C(Cc1ccc(Br)cc1)NC1CCCc2ccccc21 (centres undefined) | -16.7 | – | – |
| CC12CC3CC(C)(C1)CC(CN)(C3)C2 | – | – | 0.103 µM [rising, full curve, poor fit] |
| Cn1nccc1NC(=O)Nc1cccc(Cl)c1Cl | 36.1 | – | 11.6 µM [rising, partial curve, poor fit] |
| O=C1CCC([N+](=O)[O-])C(c2cccc([N+](=O)[O-])c2)N1 (centres undefined) | – | 0.291 µM [rising, full curve, poor fit] | – |
| CCCc1cc(=O)oc2c3c(cc(OCC(=O)NCc4ccncc4)c12)OC(C)(C)CC3 | 8.74 | 16.4 µM [falling, single point] | – |
| O=C1c2ccccc2C(=O)N1c1cccnc1 | – | 0.00461 µM [falling, full curve, poor fit] | – |
| CN(C)S(=O)(=O)c1ccc(N2CCCC2)c(C(=O)Nc2ccccc2Br)c1 | -11.4 | – | – |
| COc1ccc2c(c1)CCc1c(C(=O)Nc3ccc(OC)c(OC)c3)noc1-2 | 16.6 | 0.00461 µM [rising, full curve, poor fit] | – |

3 compounds drawn at random from the list so far:

| SMILES | cell number change [%] | AC50 [1] | AC50 [2] |
| --- | --- | --- | --- |
| CCCc1cc(=O)oc2c3c(cc(OCC(=O)NCc4ccncc4)c12)OC(C)(C)CC3 | 8.74 | 16.4 µM [falling, single point] | – |
| COc1ccc(CCNC(=O)c2cc(-c3ccc(Cl)c(Cl)c3)oc2C)cc1 | -28.6 | – | – |
| COc1ccc(C(=O)OCc2nnc(-c3ccccc3)o2)cc1S(=O)(=O)N1CCOCC1 | -51.8 | – | 16.4 µM [falling, single point] |
